Data on one compound can be found in patent US9067914B1, “Tropomyosin-related kinase (TRK) inhibitors” (Genzyme Corporation, priority 2013, dated 2015).

Protein sequences, listed by entry. Tags and fused reporters are not part of them. Residues count along the entry.
UniProt Q16620, 32-822 limits assumed: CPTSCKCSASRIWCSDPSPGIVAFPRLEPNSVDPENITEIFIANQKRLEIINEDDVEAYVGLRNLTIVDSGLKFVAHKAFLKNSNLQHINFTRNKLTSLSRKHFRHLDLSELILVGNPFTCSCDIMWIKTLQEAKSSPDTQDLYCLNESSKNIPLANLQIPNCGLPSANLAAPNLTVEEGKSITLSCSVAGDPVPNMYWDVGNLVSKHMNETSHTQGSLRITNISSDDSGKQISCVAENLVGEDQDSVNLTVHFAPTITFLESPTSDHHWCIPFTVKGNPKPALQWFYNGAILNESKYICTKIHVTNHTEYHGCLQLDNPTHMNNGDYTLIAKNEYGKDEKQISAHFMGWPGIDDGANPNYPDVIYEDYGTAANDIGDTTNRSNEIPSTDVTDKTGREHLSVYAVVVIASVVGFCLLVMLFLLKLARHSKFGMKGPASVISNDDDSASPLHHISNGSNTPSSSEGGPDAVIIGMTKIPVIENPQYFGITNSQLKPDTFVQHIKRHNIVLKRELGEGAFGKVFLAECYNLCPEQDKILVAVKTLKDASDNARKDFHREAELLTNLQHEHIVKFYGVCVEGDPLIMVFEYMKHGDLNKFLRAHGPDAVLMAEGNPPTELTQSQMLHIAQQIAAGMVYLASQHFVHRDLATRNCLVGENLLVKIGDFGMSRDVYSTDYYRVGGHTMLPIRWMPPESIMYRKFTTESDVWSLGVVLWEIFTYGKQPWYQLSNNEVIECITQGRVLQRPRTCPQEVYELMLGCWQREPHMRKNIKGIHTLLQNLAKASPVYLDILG
UniProt P04629, 33-796 limits assumed: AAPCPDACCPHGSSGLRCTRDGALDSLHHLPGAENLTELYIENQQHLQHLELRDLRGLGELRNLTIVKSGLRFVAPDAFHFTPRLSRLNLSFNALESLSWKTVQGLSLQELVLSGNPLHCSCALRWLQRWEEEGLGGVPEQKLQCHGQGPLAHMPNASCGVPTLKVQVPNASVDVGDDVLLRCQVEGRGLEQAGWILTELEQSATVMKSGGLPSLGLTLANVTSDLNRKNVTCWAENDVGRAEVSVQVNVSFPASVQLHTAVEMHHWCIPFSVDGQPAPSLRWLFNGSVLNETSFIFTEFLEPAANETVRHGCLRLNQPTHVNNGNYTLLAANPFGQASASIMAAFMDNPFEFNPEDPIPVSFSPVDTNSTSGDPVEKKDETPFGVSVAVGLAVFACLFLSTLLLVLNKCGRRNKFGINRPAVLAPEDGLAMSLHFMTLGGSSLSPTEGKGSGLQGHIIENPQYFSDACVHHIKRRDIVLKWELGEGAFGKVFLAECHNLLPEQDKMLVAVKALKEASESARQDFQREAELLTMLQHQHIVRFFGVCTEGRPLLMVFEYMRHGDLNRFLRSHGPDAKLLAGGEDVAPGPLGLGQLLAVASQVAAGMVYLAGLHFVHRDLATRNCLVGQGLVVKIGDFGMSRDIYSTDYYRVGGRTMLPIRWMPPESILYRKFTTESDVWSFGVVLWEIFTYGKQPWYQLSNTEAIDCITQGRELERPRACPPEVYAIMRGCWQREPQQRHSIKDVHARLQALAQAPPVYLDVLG

The target of one experiment is TrkB (Homo sapiens (Human), UniProt Q16620). Put plainly: TrkB activity, off-chip mobility shift assay (LabChip 3000). Type of experiment: biochemical. The conditions noted are these: read-out: IC50 TrkB; 70 μM ATP (ATP Km); n/d = none detected.
The target in a further experiment is TrkA (Homo sapiens (Human), UniProt P04629). The experiment in a line: TrkA activity, off-chip mobility shift assay (LabChip 3000). Type of experiment: biochemical. The settings on record: read-out: IC50 TrkA; 55 μM ATP (ATP Km); n/d = none detected.

The term pIC50 denotes −log10 of the IC50, conventionally taken in molar units.

pIC50: −log10 of the molar value. Structures were worked out from names or drawings and are uncertain.

Consider `COc1ccc(COc2ccc(Cn3cnc4cc(-c5cncnc5)ccc43)cc2OC)cn1`, for which the pIC50 is 6.60 on TrkB and 6.08 at TrkA.
